Data: ChEMBL document CHEMBL5030542, “Pillar[5]arene-Based Polycationic Glyco[2]rotaxanes Designed as Pseudomonas aeruginosa Antibiofilm Agents” (J Med Chem, 2021)
In brackets after ≈: the same amount, converted by molar mass.

Test system: Pseudomonas aeruginosa
Test: Antibacterial activity against Pseudomonas aeruginosa PAO1 assessed as inhibition of bacterial growth for complete inhibition of bacterial growth incubated for 24 hrs
Type: functional

MIC: 2 µM (≈ 0.935 µg/mL)
SMILES: NC[C@H]1O[C@H](O[C@H]2[C@H](O)[C@@H](O[C@H]3O[C@H](CO)[C@@H](O)[C@H](N)[C@H]3O)[C@H](N)C[C@@H]2N)[C@H](N)C[C@@H]1O [TOBRAMYCIN]
